Assay results: patent publication US20190174760A1, “N-ALKYLSULFONYL CONDENSED HETEROCYCLIC COMPOUND OR SALT THEREOF, INSECTICIDE COMPRISING THE COMPOUND, AND METHOD FOR USING THE INSECTICIDE” (Nihon Nohyaku Co., Ltd., priority 2016, published 2019)
Some entries share one result that the patent states for a list of compounds.

Test system: Myzus persicae
Test: Test for control efficacy on Myzus persicae (foliar application, potted Chinese cabbage)
Type: in vivo
Conditions: 500 ppm, foliar application to potted Chinese cabbage, 6 days after application

Compound	control efficacy (control rate) on Myzus persicae
CCS(=O)(=O)n1c(-c2nc3cc(C(F)(F)C(F)(F)F)nnc3n2C)cc2ccccc21 [Compound 1-33, 2-(1-ethylsulfonylindol-2-yl)-3-methyl-6-pentafluoroethyl-3H-imidazo[4,5-c]pyridazine]	A (the control rate is 100%)
CCS(=O)(=O)n1c(-c2nc3cc(C(F)(F)C(F)(F)F)nnc3n2C)cc2ccc(F)cc21 [Compound 1-65, 2-(1-ethylsulfonyl-6-fluoroindol-2-yl)-3-methyl-6-pentafluoroethyl-3H-imidazo[4,5-c]pyridazine]	A (the control rate is 100%)
CCS(=O)(=O)n1c(-c2nc3cc(C(F)(F)F)cnc3n2C)cc2cc(C(F)(F)F)ccc21 [Compound 2-11, 2-(1-ethylsulfonyl-5-trifluoromethylindol-2-yl)-3-methyl-6-trifluoromethyl-3H-imidazo[4,5-b]pyridine]	A (the control rate is 100%)
